In this assay the target is ATP1B3 (UniProt P54709). Nature of the assay: NP40-soluble protein abundance relative to vehicle (solubility fold change) (ratio); higher = more soluble protein in presence of ATP. The essentials: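 Eight concentrations, 0.1 to 10 mM, were tested on Jurkat crude lysate for 10 min at room temperature and then 3 min at 37 °C, in three independent experiments. The lysate was solubilised with 0.8% NP40 and benzonase, ultracentrifuged, and the supernatant TMT-labelled for LC-MS/MS. Each value is the fold change against the detergent-processed vehicle in its own replicate, from vsn-normalised intensities.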

Amino acid sequences for entries named in this document (tags omitted).
UniProt P54709, whole entry: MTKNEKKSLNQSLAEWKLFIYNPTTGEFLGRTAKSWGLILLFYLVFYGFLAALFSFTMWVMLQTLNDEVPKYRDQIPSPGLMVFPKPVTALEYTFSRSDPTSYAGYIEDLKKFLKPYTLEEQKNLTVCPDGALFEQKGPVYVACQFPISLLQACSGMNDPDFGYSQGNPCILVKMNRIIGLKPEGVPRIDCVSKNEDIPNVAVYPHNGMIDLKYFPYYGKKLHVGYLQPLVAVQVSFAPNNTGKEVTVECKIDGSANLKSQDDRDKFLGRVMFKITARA

± gives the standard deviation of the averaged measurements. Only a part is listed here, and it is no random draw. Most values lie at the level of the controls, where differences are scatter.

Turning to `Nc1ncnc2c1ncn2[C@@H]1O[C@H](COP(=O)(O)OP(=O)(O)OP(=O)(O)O)[C@@H](O)[C@H]1O` [adenosine triphosphate], the NP40-soluble protein abundance was determined as 0.995 ± 0.069 (concentration: 0.1mM) and 0.969 ± 0.02 (concentration: 0.5mM).

These data come from the supplement of paper PMC6411743.
